This is one part of the list.
compound: COc1ccc(Cn2ccc3cc(C)c(C(=O)NO)cc32)cc1; assay: dose-dependent thermal stabilisation call (2D-TPP, DLPTP, 10% FDR) (binary (1 = stabilised)); higher = stabilised by the compound; details: system: HL-60 intact cells; concentration range 0.04-10 µM
Protocol: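 2D thermal proteome profiling in intact HL-60 cells treated with BRD-3811 (0, 0.04, 0.29, 2, 10 uM) for 90 min at 37 C, then heated 3 min at one of 12 temperatures (42-63.9 C). Soluble protein was quantified by TMT10 MS. The value is the DLPTP call of the paper: dose-dependent thermal stabilisation over all temperatures at 10% FDR (F-test of a dose-response against a flat model); one experiment, one call per tested protein.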

The chains behind the UniProt entries cited, without tags or fusion partners. Where a name states a change or a piece, a line headed by the entry shows the natural chain unless it says otherwise.
UniProt Q86WQ0: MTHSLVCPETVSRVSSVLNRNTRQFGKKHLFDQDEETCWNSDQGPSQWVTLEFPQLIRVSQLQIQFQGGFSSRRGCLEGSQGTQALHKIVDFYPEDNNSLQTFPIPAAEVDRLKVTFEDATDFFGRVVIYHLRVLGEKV
UniProt P51957: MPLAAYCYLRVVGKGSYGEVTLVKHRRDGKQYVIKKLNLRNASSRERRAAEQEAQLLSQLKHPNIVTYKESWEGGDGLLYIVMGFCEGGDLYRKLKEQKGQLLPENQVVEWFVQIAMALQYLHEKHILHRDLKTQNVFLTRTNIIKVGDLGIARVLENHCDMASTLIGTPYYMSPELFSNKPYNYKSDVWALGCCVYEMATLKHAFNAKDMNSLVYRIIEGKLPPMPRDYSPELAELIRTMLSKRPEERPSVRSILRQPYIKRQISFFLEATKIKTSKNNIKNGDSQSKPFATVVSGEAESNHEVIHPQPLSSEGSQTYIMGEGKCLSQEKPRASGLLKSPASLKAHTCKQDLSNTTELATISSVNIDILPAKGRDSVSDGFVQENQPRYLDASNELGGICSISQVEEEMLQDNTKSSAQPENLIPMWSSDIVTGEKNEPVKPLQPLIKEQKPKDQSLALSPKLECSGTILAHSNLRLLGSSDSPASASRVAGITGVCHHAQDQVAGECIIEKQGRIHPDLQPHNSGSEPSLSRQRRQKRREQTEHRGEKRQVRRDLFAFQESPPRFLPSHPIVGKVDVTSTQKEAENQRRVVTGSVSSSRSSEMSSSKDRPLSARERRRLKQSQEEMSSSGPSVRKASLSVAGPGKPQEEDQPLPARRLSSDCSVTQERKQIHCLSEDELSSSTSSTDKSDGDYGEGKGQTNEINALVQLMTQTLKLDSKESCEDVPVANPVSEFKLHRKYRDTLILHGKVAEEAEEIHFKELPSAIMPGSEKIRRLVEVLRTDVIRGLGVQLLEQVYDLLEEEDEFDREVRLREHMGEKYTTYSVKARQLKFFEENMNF
UniProt Q96P26: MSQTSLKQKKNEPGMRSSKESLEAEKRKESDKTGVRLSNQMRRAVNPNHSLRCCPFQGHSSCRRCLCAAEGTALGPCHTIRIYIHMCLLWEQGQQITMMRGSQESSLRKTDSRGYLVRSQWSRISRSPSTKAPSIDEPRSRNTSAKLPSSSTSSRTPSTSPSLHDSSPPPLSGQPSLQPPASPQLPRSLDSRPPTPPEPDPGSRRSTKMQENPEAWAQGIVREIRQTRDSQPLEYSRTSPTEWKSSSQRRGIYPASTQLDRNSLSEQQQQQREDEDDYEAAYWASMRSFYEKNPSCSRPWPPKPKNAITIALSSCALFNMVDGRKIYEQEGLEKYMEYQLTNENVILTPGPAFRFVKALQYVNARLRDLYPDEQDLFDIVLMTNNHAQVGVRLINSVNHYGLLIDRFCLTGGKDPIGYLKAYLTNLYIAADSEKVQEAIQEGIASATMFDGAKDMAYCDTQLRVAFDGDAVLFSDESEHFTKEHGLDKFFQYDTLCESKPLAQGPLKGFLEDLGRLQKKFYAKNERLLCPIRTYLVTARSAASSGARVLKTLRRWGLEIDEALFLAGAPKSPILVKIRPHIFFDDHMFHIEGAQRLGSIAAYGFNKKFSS
UniProt Q8N1F7: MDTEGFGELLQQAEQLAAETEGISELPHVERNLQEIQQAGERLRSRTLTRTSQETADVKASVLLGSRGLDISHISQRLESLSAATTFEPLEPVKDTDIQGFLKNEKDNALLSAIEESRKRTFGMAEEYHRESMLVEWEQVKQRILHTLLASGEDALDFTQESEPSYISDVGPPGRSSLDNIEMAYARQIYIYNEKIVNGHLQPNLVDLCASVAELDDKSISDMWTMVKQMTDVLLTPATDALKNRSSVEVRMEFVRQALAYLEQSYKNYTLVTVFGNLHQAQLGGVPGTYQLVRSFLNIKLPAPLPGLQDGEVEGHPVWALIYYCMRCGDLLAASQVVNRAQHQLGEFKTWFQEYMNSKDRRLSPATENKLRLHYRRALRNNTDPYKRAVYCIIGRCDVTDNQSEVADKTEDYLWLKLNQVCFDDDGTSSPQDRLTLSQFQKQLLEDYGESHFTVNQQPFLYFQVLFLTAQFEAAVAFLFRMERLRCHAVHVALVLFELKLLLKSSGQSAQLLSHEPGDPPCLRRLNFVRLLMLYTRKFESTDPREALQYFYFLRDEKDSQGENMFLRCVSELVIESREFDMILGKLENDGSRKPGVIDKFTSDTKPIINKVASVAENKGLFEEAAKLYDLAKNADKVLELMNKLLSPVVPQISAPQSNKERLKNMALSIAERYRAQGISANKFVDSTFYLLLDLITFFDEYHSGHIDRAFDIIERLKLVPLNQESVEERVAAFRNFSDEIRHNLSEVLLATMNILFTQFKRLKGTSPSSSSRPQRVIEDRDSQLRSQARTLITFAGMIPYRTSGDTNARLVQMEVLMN
UniProt Q15233: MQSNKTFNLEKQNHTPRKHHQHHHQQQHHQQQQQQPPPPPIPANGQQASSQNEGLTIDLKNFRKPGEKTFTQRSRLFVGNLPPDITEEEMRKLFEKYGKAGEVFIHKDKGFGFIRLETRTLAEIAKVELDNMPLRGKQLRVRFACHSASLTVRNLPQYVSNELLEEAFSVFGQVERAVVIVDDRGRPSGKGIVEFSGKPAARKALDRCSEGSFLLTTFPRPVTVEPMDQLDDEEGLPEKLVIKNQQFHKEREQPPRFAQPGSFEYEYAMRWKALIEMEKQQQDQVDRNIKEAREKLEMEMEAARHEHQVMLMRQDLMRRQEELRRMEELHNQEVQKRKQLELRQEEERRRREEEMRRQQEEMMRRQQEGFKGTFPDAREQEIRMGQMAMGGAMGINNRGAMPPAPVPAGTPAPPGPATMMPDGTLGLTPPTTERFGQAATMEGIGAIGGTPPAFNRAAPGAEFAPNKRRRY
UniProt Q9UHQ1: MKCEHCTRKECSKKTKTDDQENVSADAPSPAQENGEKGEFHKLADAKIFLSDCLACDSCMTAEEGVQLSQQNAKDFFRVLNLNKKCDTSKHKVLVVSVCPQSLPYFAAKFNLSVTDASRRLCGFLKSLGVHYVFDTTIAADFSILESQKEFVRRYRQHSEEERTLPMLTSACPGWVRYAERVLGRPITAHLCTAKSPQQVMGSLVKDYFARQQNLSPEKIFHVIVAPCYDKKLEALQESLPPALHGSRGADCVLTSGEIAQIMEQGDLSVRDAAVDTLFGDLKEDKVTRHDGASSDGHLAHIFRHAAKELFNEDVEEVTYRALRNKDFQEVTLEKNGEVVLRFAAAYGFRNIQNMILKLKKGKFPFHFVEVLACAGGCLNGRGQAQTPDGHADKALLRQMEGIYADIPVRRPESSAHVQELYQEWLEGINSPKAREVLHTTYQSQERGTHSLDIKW
UniProt O75607: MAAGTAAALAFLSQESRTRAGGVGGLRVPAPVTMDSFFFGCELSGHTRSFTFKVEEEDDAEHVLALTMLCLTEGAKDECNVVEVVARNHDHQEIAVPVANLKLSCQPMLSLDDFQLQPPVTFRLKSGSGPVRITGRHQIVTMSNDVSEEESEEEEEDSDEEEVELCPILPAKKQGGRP
UniProt A2RRP1: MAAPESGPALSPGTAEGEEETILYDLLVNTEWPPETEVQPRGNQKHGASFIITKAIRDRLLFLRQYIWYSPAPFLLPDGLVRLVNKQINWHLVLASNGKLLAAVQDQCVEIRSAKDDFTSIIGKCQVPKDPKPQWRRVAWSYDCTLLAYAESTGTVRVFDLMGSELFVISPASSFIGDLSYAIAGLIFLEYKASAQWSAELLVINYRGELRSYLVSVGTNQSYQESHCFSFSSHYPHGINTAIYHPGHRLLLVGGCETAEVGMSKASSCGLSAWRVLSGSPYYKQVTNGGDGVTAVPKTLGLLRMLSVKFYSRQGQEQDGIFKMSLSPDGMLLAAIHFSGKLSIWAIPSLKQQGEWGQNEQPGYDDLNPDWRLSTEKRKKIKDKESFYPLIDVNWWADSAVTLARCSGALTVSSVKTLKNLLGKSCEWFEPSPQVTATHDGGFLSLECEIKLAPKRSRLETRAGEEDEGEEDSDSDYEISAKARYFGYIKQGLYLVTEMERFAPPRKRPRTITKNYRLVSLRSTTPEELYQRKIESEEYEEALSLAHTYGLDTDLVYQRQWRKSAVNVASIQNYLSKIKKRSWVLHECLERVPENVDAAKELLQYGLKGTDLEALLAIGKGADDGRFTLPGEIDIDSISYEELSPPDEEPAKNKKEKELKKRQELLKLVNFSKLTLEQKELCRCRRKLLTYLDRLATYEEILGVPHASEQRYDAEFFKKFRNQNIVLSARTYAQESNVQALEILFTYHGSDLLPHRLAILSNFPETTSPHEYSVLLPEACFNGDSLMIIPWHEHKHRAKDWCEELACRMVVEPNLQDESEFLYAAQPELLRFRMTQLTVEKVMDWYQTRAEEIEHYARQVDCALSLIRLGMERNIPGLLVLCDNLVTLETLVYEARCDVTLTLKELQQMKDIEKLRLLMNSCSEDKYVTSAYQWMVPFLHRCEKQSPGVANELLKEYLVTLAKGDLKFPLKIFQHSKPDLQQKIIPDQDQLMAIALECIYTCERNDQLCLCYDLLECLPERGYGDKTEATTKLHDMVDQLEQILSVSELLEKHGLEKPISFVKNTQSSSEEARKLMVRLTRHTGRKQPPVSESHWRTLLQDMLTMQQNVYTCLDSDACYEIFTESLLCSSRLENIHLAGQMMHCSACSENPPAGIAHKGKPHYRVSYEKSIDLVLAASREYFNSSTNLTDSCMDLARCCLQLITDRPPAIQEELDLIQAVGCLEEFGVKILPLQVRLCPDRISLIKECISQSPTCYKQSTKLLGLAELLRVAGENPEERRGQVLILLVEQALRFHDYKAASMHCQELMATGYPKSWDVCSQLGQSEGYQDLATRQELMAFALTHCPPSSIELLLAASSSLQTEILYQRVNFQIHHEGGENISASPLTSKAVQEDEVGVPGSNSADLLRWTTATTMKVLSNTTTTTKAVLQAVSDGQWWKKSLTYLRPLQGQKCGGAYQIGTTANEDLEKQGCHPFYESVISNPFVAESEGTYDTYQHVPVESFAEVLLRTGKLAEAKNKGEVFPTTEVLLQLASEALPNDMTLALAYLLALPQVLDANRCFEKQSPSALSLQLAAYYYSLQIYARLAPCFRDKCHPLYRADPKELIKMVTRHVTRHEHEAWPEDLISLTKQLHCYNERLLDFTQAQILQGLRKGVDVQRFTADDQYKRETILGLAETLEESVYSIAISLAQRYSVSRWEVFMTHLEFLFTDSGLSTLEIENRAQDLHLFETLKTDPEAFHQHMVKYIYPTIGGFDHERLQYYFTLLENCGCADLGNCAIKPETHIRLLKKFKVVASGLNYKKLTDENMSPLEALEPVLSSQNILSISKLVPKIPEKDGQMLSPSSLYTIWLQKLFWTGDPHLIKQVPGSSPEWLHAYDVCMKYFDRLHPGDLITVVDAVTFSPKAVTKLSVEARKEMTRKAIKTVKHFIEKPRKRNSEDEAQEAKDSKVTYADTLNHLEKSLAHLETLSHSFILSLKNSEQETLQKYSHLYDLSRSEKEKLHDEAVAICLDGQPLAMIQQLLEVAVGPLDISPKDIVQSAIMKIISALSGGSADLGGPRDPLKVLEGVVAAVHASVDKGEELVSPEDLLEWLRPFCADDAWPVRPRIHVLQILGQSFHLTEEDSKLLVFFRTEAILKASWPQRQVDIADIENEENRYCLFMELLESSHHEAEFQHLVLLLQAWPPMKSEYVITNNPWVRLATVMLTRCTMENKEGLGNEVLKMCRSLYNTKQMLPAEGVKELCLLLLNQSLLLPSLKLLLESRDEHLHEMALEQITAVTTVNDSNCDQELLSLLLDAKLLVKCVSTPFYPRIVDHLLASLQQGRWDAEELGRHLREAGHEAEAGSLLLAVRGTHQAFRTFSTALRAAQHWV
UniProt Q8NHV4, whole entry: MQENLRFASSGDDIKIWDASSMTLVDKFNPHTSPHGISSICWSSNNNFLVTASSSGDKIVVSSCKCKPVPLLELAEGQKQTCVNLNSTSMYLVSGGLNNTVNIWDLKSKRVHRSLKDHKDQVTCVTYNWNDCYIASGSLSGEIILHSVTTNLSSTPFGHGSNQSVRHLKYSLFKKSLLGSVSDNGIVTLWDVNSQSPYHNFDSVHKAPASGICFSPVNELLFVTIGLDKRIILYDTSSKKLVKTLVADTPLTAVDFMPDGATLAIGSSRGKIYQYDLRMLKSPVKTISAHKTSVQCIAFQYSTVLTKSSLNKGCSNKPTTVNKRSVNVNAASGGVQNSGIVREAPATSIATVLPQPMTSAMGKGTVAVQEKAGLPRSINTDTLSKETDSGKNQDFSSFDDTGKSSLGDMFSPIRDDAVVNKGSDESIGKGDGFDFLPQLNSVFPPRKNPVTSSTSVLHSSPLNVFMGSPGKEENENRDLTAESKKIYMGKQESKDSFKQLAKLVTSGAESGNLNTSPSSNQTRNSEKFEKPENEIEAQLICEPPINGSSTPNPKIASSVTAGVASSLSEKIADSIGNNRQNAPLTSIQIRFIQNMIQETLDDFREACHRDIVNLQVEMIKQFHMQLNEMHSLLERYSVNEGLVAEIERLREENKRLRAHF

Target	dose-dependent thermal stabilisation call
NOL6 (UniProt Q9H6R4)	inactive: 0
NR2C2AP (UniProt Q86WQ0)	inactive: 0
NLE1 (UniProt Q9NVX2)	inactive: 0
NEK4 (UniProt P51957)	inactive: 0
NFYC (UniProt Q13952)	inactive: 0
NUDT9 (UniProt Q9BW91)	inactive: 0
NDFIP2 (UniProt Q9NV92)	inactive: 0
NDRG3 (UniProt Q9UGV2)	inactive: 0
ND2 (UniProt P03891)	inactive: 0
NT5DC1 (UniProt Q5TFE4)	active: 1
NMRAL1 (UniProt Q9HBL8)	inactive: 0
NUDT16 (UniProt Q96DE0)	inactive: 0
NT5C1B (UniProt Q96P26)	inactive: 0
NUP93 (UniProt Q8N1F7)	inactive: 0
NUMA1 (UniProt Q14980)	inactive: 0
NIBP (UniProt Q96Q05)	inactive: 0
NCL (UniProt P19338)	inactive: 0
NUB1 (UniProt Q9Y5A7)	inactive: 0

Target	dose-dependent thermal stabilisation call
OCIAD2 (UniProt Q56VL3)	inactive: 0
NONO (UniProt Q15233)	inactive: 0
NDOR1 (UniProt Q9UHB4)	inactive: 0
NDUFA9 (UniProt Q16795)	inactive: 0
NRD1 (UniProt O43847)	inactive: 0
NSMAF (UniProt Q92636)	inactive: 0
NARF (UniProt Q9UHQ1)	inactive: 0
NPM3 (UniProt O75607)	inactive: 0
NIPSNAP3A (UniProt Q9UFN0)	inactive: 0
NUP85 (UniProt Q9BW27)	inactive: 0
NAG (UniProt A2RRP1)	inactive: 0
NEDD4 (UniProt P46934)	inactive: 0
NMNAT1 (UniProt Q9HAN9)	inactive: 0
NUDC (UniProt Q9Y266)	inactive: 0
OGDH (UniProt Q02218)	inactive: 0
NF1 (UniProt P21359)	inactive: 0
NEDD1 (UniProt Q8NHV4)	inactive: 0
NNT (UniProt Q13423)	inactive: 0

Looked up one by one from above:
Target	dose-dependent thermal stabilisation call
NUMA1 (UniProt Q14980)	inactive: 0
NRD1 (UniProt O43847)	inactive: 0

From the supplement of paper PMC7666118
